Measurements: PubChem BioAssay AID540276 (National Center for Advancing Translational Sciences (NCATS), 2011)
Values joined by “and” are separate entries in the source; they are usually repeats but may differ in a detail not shown here. Identical values can stand only once. In all, about 300,000 compounds went through this assay and about 5,400 (1.8%) were called active. The shares of active, inactive and inconclusive entries below differ from those in the screen. The call rests on the fitted dose curve; tested in HEK293 cells. Potencies of inconclusive entries are doubtful fits and often do not repeat.
Potency means the concentration at half of the fitted maximal effect.

Experiment: qHTS for inhibitors of binding or entry into cells for Marburg Virus
Conditions: Marburg virus pseudotyped entry inhibition, cell reporter; series mostly up to 37.8 µM
For `Cc1ccc(NC(=S)N/N=C/c2c(C)nn(-c3ccccc3)c2N2CCCC2)cc1`, the Potency was “inactive”. For `O=C(CCl)NC1CCCc2ccccc21` (stereo not given), the Potency was inconclusive: 11.2 µM [inhibitor, partial curve, poor fit]. In the case of `CN(C)C(=O)c1ccc(-c2cc(C(F)(F)F)nn2C)s1`, the Potency is reported as inconclusive: 5.62 µM [activator, single point]. In the case of `COc1ccc(CCNC(=O)CCCn2nc(C)c3sc4ccccc4c3c2=O)cc1OC`, the Potency is reported as inconclusive: 10 µM [inhibitor, partial curve, poor fit]. For `O=C(NNS(=O)(=O)c1ccc2ccccc2c1)c1cc(-c2ccccn2)nc2ccccc12`, the Potency was inconclusive: 20 µM [inhibitor, single point]. For `COc1ccccc1NC(=O)CSc1nnnn1-c1ccc(F)cc1`, the Potency was “inactive”. With `OCCN(Cc1ccccc1)CC1CC=CCC1` (stereo not given) the Potency was inconclusive: 29.1 µM [inhibitor, single point]. For `CC(=O)SCC(C)C(=O)NCc1ccccc1` (stereo not given), the Potency was “inactive”. With `COc1cc(CN(C(=O)COc2ccc(Cl)c(C)c2)c2ccccn2)cc(OC)c1OC` the Potency was inconclusive: 35.5 µM [inhibitor, single point]. With `Cc1nc(/C=C\C(=O)O)c2cc(C)oc2n1` the Potency was inconclusive: 6.31 µM [activator, single point]. In the case of `Cc1csc2nc(COc3ccccc3NC(=O)c3ccccc3Cl)cc(=O)n12`, the Potency is reported as “inactive”. In the case of `COc1ccc(CNc2ccc(C(=O)O)cc2)cc1`, the Potency is reported as inconclusive: 0.651 µM [activator, full curve, poor fit]. For `Cc1nn(-c2ccccc2)c2sc(C(=O)Nc3cccc(O)c3)cc12`, the Potency was “inactive”. In the case of `FC(F)(F)c1ccccc1NC(=S)Nc1ccccc1`, the Potency is reported as inconclusive: 0.562 µM [activator, full curve, poor fit]. In the case of `Cc1ccc(-c2nc(Nc3ccc(O)cc3)c3ccccc3n2)cc1`, the Potency is reported as inconclusive: 17.8 µM [inhibitor, partial curve, poor fit]. With `COc1ccc(NC(=O)c2sc3nc(C)nc(N4CCN(c5ccccn5)CC4)c3c2C)c(OC)c1` the Potency was inconclusive: 7.94 µM [inhibitor, partial curve, poor fit]. For `COc1cc2[nH]c(C(=O)N3CCc4ccccc4C3)cc2c(OC)c1OC`, the Potency was inconclusive: 35.5 µM [inhibitor, single point]. With `CCN(c1ccccc1)S(=O)(=O)c1ccc(N2CCN(c3ccc(O)cc3)CC2)nc1` the Potency was inconclusive: 35.5 µM [inhibitor, single point]. With `CN(C)c1ccc(C(c2nnnn2C(C)(C)C)N2CCc3ccccc3C2)cc1` (stereo not given) the Potency was “inactive”. In the case of `CCCOC1CCCN(C(=O)c2cc(COc3ccc(F)c(F)c3)on2)C1` (stereo not given), the Potency is reported as “inactive”. For `Cc1cccc(N2CCN(S(=O)(=O)c3ccc(S(=O)(=O)N4CCCC4)cc3)CC2)c1C`, the Potency was inconclusive: 0.116 µM [inhibitor, full curve, poor fit]. With `O=C(c1ccc(OC2CCN(C/C=C/c3ccccc3)CC2)cc1)N1CCCC1` the Potency was inconclusive: 7.94 µM [inhibitor, partial curve, poor fit]. With `Cc1ccccc1-c1nnc(SCC(=O)N2CCCCC2)o1` the Potency was inconclusive: 8.91 µM [activator, single point]. With `CCOC(=O)Cc1csc(NC(=S)NC(=O)c2ccc(Cl)cc2)n1` the Potency was “inactive”. For `CCOCCCNC(=S)NCCc1ccccc1`, the Potency was inconclusive: 1.26 µM [activator, partial curve, poor fit]. With `OCCNc1cnc2ccccc2n1` the Potency was “inactive”. With `COc1ccccc1N1CCN(C(=O)CN(C)S(=O)(=O)c2cc(C)ccc2OC)CC1` the Potency was inconclusive: 22.4 µM [inhibitor, single point]. For `O=C(Nc1ccccc1C(=O)OCC(=O)c1c[nH]c2ccccc12)c1ccco1`, the Potency was inconclusive: 35.5 µM [inhibitor, single point]. In the case of `Cc1cc(C)c2oc(-c3ccc(C)c(NC(=S)NC(=O)c4cccs4)c3)nc2c1`, the Potency is reported as “inactive”. With `CCOC(=O)CCS(=O)(=O)c1nc(-c2ccccc2)cc(C(F)(F)F)n1` the Potency was active: 6.31 µM. For `COc1cccc(CNC(=O)CSC(=S)N2CCCC2)c1`, the Potency was “inactive”. In the case of `C/C=C/c1ccc(OCCCNC2CCCC2)c(OC)c1`, the Potency is reported as inconclusive: 35.5 µM [inhibitor, partial curve, poor fit]. In the case of `CCn1c(-c2cc(-c3ccccc3OC)nc3ccccc23)n[nH]c1=S`, the Potency is reported as “inactive”. For `Cc1onc(-c2ccccc2)c1C(=O)Nc1nc2c(s1)C(=O)CC(C)(C)C2`, the Potency was inconclusive: 0.141 µM [inhibitor, full curve, poor fit]. In the case of `O=C(COC(=O)c1cc([N+](=O)[O-])ccc1NCc1ccccc1)NCc1ccccc1Cl`, the Potency is reported as inconclusive: 0.708 µM [activator, full curve, poor fit]. With `COc1ccc(C2OC(=O)CC2C(=O)NC(C)C)cc1` (stereo not given) the Potency was inconclusive: 0.184 µM [inhibitor, single point]. For `Cc1cnc(NC(=O)CSc2nnc(COc3ccccc3)o2)s1`, the Potency was “inactive”. In the case of `CC1(C(=O)Nc2ncc(Cc3ccc(Br)cc3)s2)Cc2ccccc2C(=O)O1` (stereo not given), the Potency is reported as inconclusive: 6.31 µM [activator, single point]. In the case of `Cc1ccc(S(=O)(=O)N2CCN(C(=O)CSC3CCCC3)CC2)c(C)c1`, the Potency is reported as inconclusive: 29.1 µM [inhibitor, single point]. For `COC(=O)c1ccc(NC(=O)C2C3C=CC(O3)C2C(=O)O)cc1` (stereo not given), the Potency was “inactive”. In the case of `CC(=O)Nc1ccc2c(c1)n(C)c(=O)n2C`, the Potency is reported as “inactive”. For `Cc1cc(C)c2nc(NC(=O)c3ccc([N+](=O)[O-])o3)sc2c1`, the Potency was “inactive”. In the case of `CCOC(=O)Cn1nnnc1C(CC)N(Cc1cccs1)Cc1cc2ccc(OC)cc2[nH]c1=O` (stereo not given), the Potency is reported as inconclusive: 17.8 µM [inhibitor, single point]. With `COc1ccc(C(=O)CSc2ccc(-c3ccccc3)nn2)cc1` the Potency was “inactive”. In the case of `Oc1ccc(C=NC2CCCCC2)c(O)c1`, the Potency is reported as “inactive”. In the case of `Cc1ccc(NC(=O)C(C)c2cccc(C(=O)c3ccccc3)c2)cc1O` (stereo not given), the Potency is reported as inconclusive: 35.5 µM [inhibitor, single point]. With `COC(=O)N1[C@H]2CC[C@@]3(C)CC(=O)C[C@]1(C)C3c1ccccc12` the Potency was “inactive”. In the case of `O=[N+]([O-])c1ccc(/C=C/c2nc3ccc([N+](=O)[O-])cc3[nH]2)cc1`, the Potency is reported as “inactive”. With `CC(C)CCN1CCN(Cc2cccs2)CC1CCO` (stereo not given) the Potency was inconclusive: 35.5 µM [inhibitor, single point]. For `COc1ccccc1OCC(O)CN1CCN(CC(=O)Nc2c(C)cccc2C)CC1` (stereo not given), the Potency was inconclusive: 6.51 µM [inhibitor, partial curve, poor fit] and inconclusive: 4.47 µM [inhibitor, full curve, poor fit]. With `CCN(CC)CC(O)COc1ccc2c(c1)OCO2` (stereo not given) the Potency was inconclusive: 1.26 µM [activator, single point]. With `Cc1ccn2c(=O)c(C(=O)NCc3ccccc3Cl)c(O)nc2c1` the Potency was inconclusive: 2.82 µM [inhibitor, full curve, poor fit]. In the case of `Cc1ccc2nc(Cl)c3cc(C(=O)N(CCN(C)C)Cc4ccco4)sc3c2c1`, the Potency is reported as inconclusive: 35.5 µM [inhibitor, single point]. In the case of `Cc1ccc(Cl)cc1N1CCN(Cc2nc3ccsc3c(=O)[nH]2)CC1`, the Potency is reported as inconclusive: 2 µM [inhibitor, partial curve, poor fit]. For `O=C(NCCCN1CCCC1)c1cc(Sc2ccc(F)cc2)nc2ccccc12`, the Potency was inconclusive: 7.94 µM [inhibitor, partial curve, poor fit]. In the case of `CCN(CCn1cccn1)C(=O)c1cc(COc2cc(C)ccc2C)on1`, the Potency is reported as inconclusive: 35.5 µM [inhibitor, single point]. For `CCCOc1cc(CN2CCCCC2)cc(C(C)=O)c1`, the Potency was inconclusive: 35.5 µM [inhibitor, single point]. For `Cc1ccc2c(c1)NC(=O)C(CC(=O)NC1CCCCC1C)O2` (stereo not given), the Potency was “inactive”. In the case of `Cc1ccc(NC(=O)CC2CCCC2)c(Br)c1`, the Potency is reported as inconclusive: 6.31 µM [activator, single point]. For `COc1ccc(OCCn2c(=O)sc3ccccc32)cc1`, the Potency was inconclusive: 35.5 µM [inhibitor, single point]. With `CCOc1ccc(NC(=O)CC2C(=O)N(CC)C(=S)N2CCN2CCOCC2)cc1` (stereo not given) the Potency was “inactive”. In the case of `COc1cc(C)c(CN2CCN(c3ncccn3)CC2)cc1C`, the Potency is reported as inconclusive: 0.501 µM [inhibitor, partial curve, poor fit]. With `CCCNc1nc(N2CCCC2)nc(N2CCCC2)n1` the Potency was inconclusive: 11.2 µM [inhibitor, partial curve, poor fit]. With `CC1CCCCN1S(=O)(=O)c1ccc(C(=O)Nc2nnc(C3CC3)o2)cc1` (stereo not given) the Potency was “inactive”. In the case of `CCCCCCN1CC(=O)N2Cc3[nH]c4ccccc4c3C[C@H]2C1=O`, the Potency is reported as inconclusive: 1.26 µM [activator, partial curve, poor fit]. For `CCOC(=O)N1CCN(c2ccc(S(=O)(=O)N3CCOCC3)cn2)CC1`, the Potency was inconclusive: 35.5 µM [activator, single point]. For `COc1ccccc1N=NC1=C(O)CC(C)(C)CC1=O`, the Potency was inconclusive: 25.1 µM [activator, single point]. In the case of `C=CCNC(=O)/C=C/c1c(F)cccc1Cl`, the Potency is reported as inconclusive: 5.01 µM [activator, partial curve, poor fit]. In the case of `CNc1nn(-c2cccc(Cl)c2)nc1N`, the Potency is reported as inconclusive: 5.62 µM [activator, single point]. With `COc1ccc2oc(=O)c(C(=O)N3CCN(c4ccc(F)cc4)CC3)cc2c1` the Potency was inconclusive: 20 µM [inhibitor, single point].
